Results are given in words; binding and its absence hold for the method and conditions named. Some binding calls cover weakened binding; strength is not graded here.
B1: anti-FGFR2-IIIb antibody (afucosylated, humanized IgG1 monoclonal antibody), control sample incubated without hydrogen peroxide (antibody, V domains shown)
VH: QVQLVQSGAEVKKPGSSVKVSCKASGYIFTTYNVHWVRQAPGQGLEWIGSIYPDNGDTSYNQNFKGRATITADKSTSTAYMELSSLRSEDTAVYYCARGDFAYWGQGTLVTVSS
VL: DIQMTQSPSSLSASVGDRVTITCKASQGVSNDVAWYQQKPGKAPKLLIYSASYRYTGVPSRFSGSGSGTDFTFTISSLQPEDIATYYCQQHSTTPYTFGQGTKLEIKR
notes: also called αFGFR2b; Sample 1
B2: anti-FGFR2-IIIb antibody incubated with 1.0% hydrogen peroxide overnight at room temperature (force oxidized) (antibody, human IgG1, kappa, V domains shown)
VH: B1 VH
VL: B1 VL
notes: Same antibody as m1 after peroxide treatment; also called +1.0% H2O2; 1.0% H2O2
B3: anti-FGFR2-IIIb antibody incubated with 0.1% hydrogen peroxide overnight at room temperature (force oxidized) (antibody, human IgG1, kappa, V domains shown)
VH: B1 VH
VL: B1 VL
notes: Same antibody as m1 after peroxide treatment; also called +0.1% H2O2; 0.1% H2O2
B4: anti-FGFR2-IIIb antibody incubated with 0.01% hydrogen peroxide overnight at room temperature (force oxidized) (antibody, human IgG1, kappa, V domains shown)
VH: B1 VH
VL: B1 VL
notes: Same antibody as m1 after peroxide treatment; also called +0.01% H2O2; 0.01% H2O2

biological target: protein A (UniProt P38507); assay: Biacore

binding, binds:
B1
B2
B3
B4
